Ten molecules from doi:10.1101/2022.08.31.505729 can be followed below.

By UniProt entry, the sequences of proteins in these tests, tags left out. Where a name states a change or a piece, a line headed by the entry shows the natural chain unless it says otherwise.
UniProt Q8RX71: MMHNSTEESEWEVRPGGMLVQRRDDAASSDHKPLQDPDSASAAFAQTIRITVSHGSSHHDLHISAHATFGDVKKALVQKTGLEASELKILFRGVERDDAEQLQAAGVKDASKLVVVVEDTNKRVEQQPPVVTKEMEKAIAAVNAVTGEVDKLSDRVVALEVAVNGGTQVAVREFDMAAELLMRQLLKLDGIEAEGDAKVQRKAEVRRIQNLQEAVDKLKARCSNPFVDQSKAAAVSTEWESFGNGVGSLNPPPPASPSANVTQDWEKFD
UniProt Q8LF20: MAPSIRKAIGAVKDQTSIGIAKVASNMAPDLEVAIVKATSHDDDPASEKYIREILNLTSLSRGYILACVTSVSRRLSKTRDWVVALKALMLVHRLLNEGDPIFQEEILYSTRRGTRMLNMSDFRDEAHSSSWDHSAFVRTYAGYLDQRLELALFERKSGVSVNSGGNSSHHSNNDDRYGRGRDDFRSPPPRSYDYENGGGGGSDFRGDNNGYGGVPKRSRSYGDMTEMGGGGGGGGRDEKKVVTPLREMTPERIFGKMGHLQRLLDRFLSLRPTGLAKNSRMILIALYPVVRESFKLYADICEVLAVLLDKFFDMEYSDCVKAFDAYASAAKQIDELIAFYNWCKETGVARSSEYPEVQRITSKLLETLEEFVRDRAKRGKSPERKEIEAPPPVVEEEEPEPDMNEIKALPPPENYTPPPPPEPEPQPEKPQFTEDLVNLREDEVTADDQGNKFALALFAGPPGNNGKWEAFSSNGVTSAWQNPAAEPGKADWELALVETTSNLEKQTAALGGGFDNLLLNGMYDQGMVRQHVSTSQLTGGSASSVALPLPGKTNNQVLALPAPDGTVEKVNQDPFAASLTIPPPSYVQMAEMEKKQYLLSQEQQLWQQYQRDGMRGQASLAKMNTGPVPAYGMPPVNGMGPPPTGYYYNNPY
UniProt Q8S9J8: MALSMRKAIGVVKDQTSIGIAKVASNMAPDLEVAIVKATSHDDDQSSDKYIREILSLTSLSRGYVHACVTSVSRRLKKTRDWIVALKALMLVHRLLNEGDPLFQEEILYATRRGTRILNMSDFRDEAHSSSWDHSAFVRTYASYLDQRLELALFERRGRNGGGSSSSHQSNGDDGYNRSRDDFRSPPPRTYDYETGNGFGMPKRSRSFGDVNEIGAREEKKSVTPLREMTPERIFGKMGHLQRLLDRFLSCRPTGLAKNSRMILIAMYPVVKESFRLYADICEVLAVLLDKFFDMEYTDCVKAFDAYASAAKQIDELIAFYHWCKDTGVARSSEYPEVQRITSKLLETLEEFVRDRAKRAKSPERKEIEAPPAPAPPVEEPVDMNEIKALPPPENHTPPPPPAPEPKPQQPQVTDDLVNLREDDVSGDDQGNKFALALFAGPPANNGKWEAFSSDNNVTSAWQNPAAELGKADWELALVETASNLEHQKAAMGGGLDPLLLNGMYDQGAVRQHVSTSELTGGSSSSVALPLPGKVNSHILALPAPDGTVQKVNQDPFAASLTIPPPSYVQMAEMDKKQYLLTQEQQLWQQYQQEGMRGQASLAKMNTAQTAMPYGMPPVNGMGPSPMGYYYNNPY
UniProt Q8L7A9: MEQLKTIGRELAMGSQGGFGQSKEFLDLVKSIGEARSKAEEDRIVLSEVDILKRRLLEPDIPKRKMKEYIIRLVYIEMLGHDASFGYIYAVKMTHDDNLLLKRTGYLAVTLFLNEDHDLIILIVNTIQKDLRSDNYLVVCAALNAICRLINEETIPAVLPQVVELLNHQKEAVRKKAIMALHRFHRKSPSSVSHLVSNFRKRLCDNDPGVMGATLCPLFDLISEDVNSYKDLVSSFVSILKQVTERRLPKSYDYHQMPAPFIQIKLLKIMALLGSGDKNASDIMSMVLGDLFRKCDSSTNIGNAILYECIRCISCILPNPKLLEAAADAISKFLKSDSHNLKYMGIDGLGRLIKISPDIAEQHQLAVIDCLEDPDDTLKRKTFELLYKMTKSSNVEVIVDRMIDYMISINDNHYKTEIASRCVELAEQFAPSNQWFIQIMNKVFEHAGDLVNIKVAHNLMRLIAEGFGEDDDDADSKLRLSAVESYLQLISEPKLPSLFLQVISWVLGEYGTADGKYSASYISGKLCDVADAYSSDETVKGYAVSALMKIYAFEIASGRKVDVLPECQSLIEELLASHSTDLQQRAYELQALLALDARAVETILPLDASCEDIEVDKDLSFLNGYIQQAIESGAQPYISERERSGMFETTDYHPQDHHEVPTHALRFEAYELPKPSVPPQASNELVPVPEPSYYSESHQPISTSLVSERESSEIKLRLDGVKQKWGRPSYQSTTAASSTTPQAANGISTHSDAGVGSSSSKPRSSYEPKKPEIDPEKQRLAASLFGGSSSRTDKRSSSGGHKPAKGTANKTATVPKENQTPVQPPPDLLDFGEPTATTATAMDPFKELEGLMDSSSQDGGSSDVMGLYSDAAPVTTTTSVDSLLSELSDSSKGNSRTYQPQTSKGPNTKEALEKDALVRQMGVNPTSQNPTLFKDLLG
UniProt Q8LBH2: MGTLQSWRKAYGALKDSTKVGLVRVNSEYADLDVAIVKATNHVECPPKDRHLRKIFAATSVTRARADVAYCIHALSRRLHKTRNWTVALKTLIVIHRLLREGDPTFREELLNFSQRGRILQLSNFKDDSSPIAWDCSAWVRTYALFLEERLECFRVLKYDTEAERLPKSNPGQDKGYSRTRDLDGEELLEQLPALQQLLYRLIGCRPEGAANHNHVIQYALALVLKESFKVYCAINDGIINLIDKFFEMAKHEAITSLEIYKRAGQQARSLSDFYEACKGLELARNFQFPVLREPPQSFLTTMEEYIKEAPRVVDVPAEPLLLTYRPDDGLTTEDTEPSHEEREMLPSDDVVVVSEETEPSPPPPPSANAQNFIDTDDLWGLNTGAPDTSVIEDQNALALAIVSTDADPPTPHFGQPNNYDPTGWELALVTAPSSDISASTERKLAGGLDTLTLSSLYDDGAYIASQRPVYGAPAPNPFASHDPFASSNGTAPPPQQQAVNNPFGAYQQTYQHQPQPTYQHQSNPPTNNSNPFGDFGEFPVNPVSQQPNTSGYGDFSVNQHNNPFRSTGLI
UniProt Q42374: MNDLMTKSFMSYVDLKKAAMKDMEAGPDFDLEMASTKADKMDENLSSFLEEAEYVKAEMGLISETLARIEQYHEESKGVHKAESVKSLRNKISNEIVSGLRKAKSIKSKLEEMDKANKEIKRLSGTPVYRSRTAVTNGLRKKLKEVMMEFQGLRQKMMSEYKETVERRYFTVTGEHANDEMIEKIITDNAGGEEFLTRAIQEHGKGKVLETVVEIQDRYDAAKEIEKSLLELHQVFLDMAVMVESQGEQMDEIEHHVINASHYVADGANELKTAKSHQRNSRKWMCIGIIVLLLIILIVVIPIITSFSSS

Where two headings read alike, the source gives them in different places. No constants are given. Whether binding was seen depends on the method and setting. Binding seen in cells or lysates may run through a third protein. Here binding means that the protein was enriched with, or labelled near, the bait; the list need not be complete. For some of these results: Sequences can lack the tags named with a protein.

The target of assay [1] is T1, AP3B (Arabidopsis thaliana) (UniProt Q9M2T1).
T1 sequence: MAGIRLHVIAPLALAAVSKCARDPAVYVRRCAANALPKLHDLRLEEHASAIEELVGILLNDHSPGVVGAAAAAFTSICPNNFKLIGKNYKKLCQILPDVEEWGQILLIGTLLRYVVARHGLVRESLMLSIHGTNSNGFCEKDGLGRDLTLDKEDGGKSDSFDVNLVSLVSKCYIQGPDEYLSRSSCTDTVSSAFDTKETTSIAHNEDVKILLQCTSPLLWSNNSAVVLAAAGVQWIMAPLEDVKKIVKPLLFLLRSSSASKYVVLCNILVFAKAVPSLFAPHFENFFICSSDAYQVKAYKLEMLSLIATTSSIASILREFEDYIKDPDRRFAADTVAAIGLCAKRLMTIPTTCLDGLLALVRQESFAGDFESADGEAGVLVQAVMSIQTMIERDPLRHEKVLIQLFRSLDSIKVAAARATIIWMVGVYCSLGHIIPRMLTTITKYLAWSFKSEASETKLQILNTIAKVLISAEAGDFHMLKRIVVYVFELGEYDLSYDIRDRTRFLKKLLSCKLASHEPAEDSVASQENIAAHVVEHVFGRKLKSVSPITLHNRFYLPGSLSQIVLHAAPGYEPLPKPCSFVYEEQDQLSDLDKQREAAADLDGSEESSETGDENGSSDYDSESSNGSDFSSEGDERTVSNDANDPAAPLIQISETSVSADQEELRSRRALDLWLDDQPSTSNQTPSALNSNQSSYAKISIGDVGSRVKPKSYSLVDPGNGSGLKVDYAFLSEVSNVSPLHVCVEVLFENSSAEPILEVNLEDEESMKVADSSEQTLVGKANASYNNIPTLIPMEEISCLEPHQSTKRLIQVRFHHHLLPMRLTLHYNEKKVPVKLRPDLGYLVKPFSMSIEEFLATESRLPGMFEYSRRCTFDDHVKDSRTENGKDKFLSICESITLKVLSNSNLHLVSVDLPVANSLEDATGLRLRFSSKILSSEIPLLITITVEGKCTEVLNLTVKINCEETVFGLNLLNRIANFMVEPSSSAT
Put plainly: affinity purification with mass spectrometry.

Assay [2] addresses TML fused to TurboID (Arabidopsis thaliana) (UniProt Q9FKM4). Put plainly: proximity labelling.
Assay [3] addresses BCL-2-ASSOCIATED ATHANOGENE4 (BAG4) (Arabidopsis thaliana) (UniProt Q8RX71). Put plainly: affinity purification with mass spectrometry.
The target in assay [4] is ECA4 (Arabidopsis thaliana) (UniProt Q8LF20). Nature of the assay: affinity purification with mass spectrometry.
Assay [5] concerns the target CAP1 (Arabidopsis thaliana) (UniProt Q8S9J8). Put plainly: affinity purification with mass spectrometry.
Assay [6] has as its target T2, AP2M fused to TurboID (Arabidopsis thaliana) (UniProt O23140).
T2 sequence: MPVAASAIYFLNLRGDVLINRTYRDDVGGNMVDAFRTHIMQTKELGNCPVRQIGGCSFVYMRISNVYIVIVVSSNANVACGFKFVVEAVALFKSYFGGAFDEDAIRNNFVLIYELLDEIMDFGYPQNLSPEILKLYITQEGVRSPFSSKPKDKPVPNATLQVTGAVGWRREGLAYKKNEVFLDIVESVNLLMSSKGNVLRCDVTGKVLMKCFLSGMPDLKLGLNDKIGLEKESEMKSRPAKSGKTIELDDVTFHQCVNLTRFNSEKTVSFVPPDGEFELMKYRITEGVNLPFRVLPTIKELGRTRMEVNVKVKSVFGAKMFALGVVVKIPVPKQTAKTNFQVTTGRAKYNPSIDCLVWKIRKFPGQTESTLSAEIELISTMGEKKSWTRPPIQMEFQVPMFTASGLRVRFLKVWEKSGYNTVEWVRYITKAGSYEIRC
Nature of the assay: proximity labelling.

Assay [7] has as its target BCL-2-ASSOCIATED ATHANOGENE4 (BAG4) (Arabidopsis thaliana) (UniProt Q8RX71). Put plainly: affinity purification with mass spectrometry. The source holds these as a separate data set.
The target in assay [8] is TML fused to TurboID (Arabidopsis thaliana) (UniProt Q9FKM4). Put plainly: proximity labelling. This is another data set of the same source.
Assay [9] deals with T2, AP2M fused to TurboID (Arabidopsis thaliana). Nature of the assay: proximity labelling. This is another data set of the same source.
For assay [10], the target named is T1, AP3B (Arabidopsis thaliana). Nature of the assay: affinity purification with mass spectrometry. The source holds these as a separate data set.

As to AP4E (from UniProt Q8L7A9), the binding entry in assay [1] is listed as “binds”.

In the case of “BCL-2-ASSOCIATED ATHANOGENE4 (BAG4) (from UniProt Q8RX71 1-269)”, in assay [2], the binding result is recorded as “binds”.

Consider CAP1 (from UniProt Q8S9J8), for which the binding result in [3] and in [4] was “binds” in each case.

ECA1 (from UniProt Q8LBH2): the binding entry in assay [3] is given as “binds”.

Consider ECA4 (from UniProt Q8LF20), for which the binding result in assay [5] and in assay [3] was “binds” each time.

With “KNOLLE (cytokinesis-specific syntaxin), prey of PL-MS (from UniProt Q42374)”, the binding entry in [6] is listed as “binds”.

B1: CLC1 (protein, UniProt Q9SKU1 1-338)
chain: MATFDDGDFPAQTHSPSEHEDFGGYDNFSEAQQPPTQHQSGGFSSFNGDPASPNGYGFGASSPNHDFSSPFESSVNDANGNGGGSGGDAIFASDGPILPDPNEMREEGFQRREWRRLNTIHLEEKEKKEKEMRNQIITEAEDFKKAFYEKRDKTIETNKTDNREKEKLYWANQEKFHKEVDKHYWKAIAELIPREVPNIEKKRGKKDPDKKPSVNVIQGPKPGKPTDLGRMRQIFLKLKTNPPPHMMPPPPPAKDAKDGKDAKDGKDAKTGKDGKDAKGGKDAKDLKDGKPADPKVTEEKRPSPAKDASVETAKPDAAASGEGEKPVAVTEAEGTKAE
Take B1: the binding result in assay [7] is “binds”.

B2: clathrin light chain subunit 2 (CLC2) (protein, UniProt O04209 1-258)
chain: MSAFEDDSFVILNDDASESVPVSGSFDATDSFSAFDGSLQVEDSVDDVFAAPSSDYGAYSNGDGIFGSNGDHDGPILPPPSEMESDEGFALREWRRQNAIQLEEKEKREKELLKQIIEEADQYKEEFHKKIEVTCENNKAANREKEKLYLENQEKFYAESSKNYWKAIAELVPKEVPTIEKRRGKKEQQDPKKPTVSVIQGPKPGKPTDLTRMRQILVKLKHNPPSHLKLTSQPPSEEAAAPPKNVPETKPTEAVTAA
On to B2, for which the binding result in assay [7] and in [8] was “binds” each time.

B3: FORMIN-LIKE6 (FH6), prey of PL-MS (protein, UniProt Q9FJX6 25-899)
chain: EAHRRILHQPLFPESSTPPPPDFQSTPSPPLPDTPDQPFFPENPSTPQQTLFPPPPPPVSADVNGGLPIPTATTQSAKPGKKVAIVISVGIVTLGMLSALAFFLYRHKAKHASDTQKLVTGGGDGGGSRRFQEDSGPPTTTSSTFLYMGTVEPTRVSASESNGGTNGPVNSSPYRKLNSAKRSERYRPSPELQPLPPLAKPPQPSDNSPSALSPSSSSSGEECRDTAFYTPHGSAISSDDGYYTAFPRSANGSLPHSKRTSPRSKFGSAPTTAASRSPEMKHVIIPSIKQKLPPPVQPPPLRGLESDEQELPYSQNKPKFSQPPPPPNRAAFQAITQEKSPVPPPRRSPPPLQTPPPPPPPPPLAPPPPPQKRPRDFQMLRKVTNSEATTNSTTSPSRKQAFKTPSPKTKAVEEVNSVSAGSLEKSGDGDTDPSKPKLKPLHWDKVRASSDRATVWDQLKSSSFQLNEDRMEHLFGCNSGSSAPKEPVRRSVIPLAENENRVLDPKKSQNIAILLRALNVTREEVSEALTDGNPESLGAELLETLVKMAPTKEEEIKLREYSGDVSKLGTAERFLKTILDIPFAFKRVEAMLYRANFDAEVKYLRNSFQTLEEASLELKASRLFLKLLEAVLMTGNRMNVGTNRGDAIAFKLDTLLKLVDIKGVDGKTTLLHFVVQEITRSEGTTTTKDETILHGNNDGFRKQGLQVVAGLSRDLVNVKKSAGMDFDVLSSYVTKLEMGLDKLRSFLKTETTQGRFFDSMKTFLKEAEEEIRKIKGGERKALSMVKEVTEYFHGNAAREEAHPLRIFMVVRDFLGVLDNVCKEVKTMQEMSTSMGSASARSFRISATASLPVLHRYKARQDDTSSDSEHSSNSST
As for B3, the binding entry in assay [9] is recorded as “binds”.

B4: AP4M (protein, UniProt Q9SB50 1-451)
chain: MMISQFFVLSQRGDNIVFRDYRAEVPKGSTETFFRKVKFWKEDGNAEAPPIFNVDGVNYFHVKVVGLYFVATTRVNVSPSLVLELLQRIARVIKDYLGVLNEDSFRKNFVLVYELLDEVIDFGYVQTTSTEVLKSYIFNEPIVVSPARLQPIDPAAIFTQGAKRMPGTAVTKSVVANDPGGRRREEIFVDIIEKISVTFSSSGYILTSEIDGTIQMKSYLSGNPEIRLALNEDLNIGRGGRSVYDYRSSSGSGVILDDCNFHESVRLDSFDSDRTLSLVPPDGEFPVMNYRMTQEFKPPFHVNTLIEEAGRLKAEVIIKIRAEFPSDIIANTITVQMPLPNYTSRASFELEPGAAGQRTDFKESNKMLEWNLKKIVGGGEHTLRAKLTFSQEFHGNITKEAGPVSMTFTIPMYNVSKLQVKYLQIAKKSSSYNPYRWVRYVTQANSYVARI
Take B4: the binding result in assay [10] is recorded as “binds”.
